Experimental data taken from article PMC3589825, “The AFF4 scaffold binds human P-TEFb adjacent to HIV Tat” (eLife, 2013).
Residue numbers refer to the chain shown, from its start. Results are given in words; binding and its absence hold for the method and conditions named. For part of these data: In cells and extracts the contact can be indirect. Some entries that bind do so weakly or less than the wild type. For part of these data: Where a sequence is shown, tags or fusion partners need not be part of it.

Protein sequences, listed by entry. Tags and fused reporters are not part of them. Lines headed by an entry give the natural chain unless they say otherwise; changes in a name come on top.
UniProt P50750: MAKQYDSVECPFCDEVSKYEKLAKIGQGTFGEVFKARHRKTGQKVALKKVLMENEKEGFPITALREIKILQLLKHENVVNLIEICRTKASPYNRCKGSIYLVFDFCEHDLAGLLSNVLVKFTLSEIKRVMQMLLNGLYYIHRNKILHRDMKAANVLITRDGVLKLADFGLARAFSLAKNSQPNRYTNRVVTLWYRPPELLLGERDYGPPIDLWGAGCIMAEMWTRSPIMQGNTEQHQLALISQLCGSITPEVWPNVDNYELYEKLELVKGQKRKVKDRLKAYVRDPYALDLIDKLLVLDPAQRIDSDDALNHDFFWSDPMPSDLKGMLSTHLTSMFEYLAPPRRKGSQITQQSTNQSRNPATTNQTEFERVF
UniProt P42568: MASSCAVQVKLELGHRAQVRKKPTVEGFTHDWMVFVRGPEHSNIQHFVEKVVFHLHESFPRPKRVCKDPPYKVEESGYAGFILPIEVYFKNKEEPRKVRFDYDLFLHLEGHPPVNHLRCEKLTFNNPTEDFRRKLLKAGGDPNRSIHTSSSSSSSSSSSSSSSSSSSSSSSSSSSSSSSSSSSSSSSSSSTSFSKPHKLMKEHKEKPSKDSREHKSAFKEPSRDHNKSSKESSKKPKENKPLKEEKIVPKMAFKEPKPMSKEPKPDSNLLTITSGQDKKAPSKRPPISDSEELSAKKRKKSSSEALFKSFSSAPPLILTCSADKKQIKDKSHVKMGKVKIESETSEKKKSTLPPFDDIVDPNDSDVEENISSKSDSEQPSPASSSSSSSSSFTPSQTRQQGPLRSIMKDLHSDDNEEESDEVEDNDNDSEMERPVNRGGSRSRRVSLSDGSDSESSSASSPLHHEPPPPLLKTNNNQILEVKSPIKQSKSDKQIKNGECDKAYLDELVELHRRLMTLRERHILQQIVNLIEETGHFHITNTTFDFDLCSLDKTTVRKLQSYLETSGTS
UniProt P04608: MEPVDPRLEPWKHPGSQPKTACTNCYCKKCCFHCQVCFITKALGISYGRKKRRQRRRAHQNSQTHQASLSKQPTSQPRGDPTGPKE

How the values were obtained:
[1] = target: T1, AFF4 Lys63/Asp64 di-alanine mutant with C-terminal 3× FLAG tag (human) (UniProt Q9UHB7); assay: co-IP; HeLa cells transfected with AFF4 variants with C-terminal 3× FLAG; nuclear extract, anti-FLAG agarose beads 2 hr at 4°C, glycine elution, Western blot; without or with a stably integrated, overexpressed gene for Tat
T1 sequence: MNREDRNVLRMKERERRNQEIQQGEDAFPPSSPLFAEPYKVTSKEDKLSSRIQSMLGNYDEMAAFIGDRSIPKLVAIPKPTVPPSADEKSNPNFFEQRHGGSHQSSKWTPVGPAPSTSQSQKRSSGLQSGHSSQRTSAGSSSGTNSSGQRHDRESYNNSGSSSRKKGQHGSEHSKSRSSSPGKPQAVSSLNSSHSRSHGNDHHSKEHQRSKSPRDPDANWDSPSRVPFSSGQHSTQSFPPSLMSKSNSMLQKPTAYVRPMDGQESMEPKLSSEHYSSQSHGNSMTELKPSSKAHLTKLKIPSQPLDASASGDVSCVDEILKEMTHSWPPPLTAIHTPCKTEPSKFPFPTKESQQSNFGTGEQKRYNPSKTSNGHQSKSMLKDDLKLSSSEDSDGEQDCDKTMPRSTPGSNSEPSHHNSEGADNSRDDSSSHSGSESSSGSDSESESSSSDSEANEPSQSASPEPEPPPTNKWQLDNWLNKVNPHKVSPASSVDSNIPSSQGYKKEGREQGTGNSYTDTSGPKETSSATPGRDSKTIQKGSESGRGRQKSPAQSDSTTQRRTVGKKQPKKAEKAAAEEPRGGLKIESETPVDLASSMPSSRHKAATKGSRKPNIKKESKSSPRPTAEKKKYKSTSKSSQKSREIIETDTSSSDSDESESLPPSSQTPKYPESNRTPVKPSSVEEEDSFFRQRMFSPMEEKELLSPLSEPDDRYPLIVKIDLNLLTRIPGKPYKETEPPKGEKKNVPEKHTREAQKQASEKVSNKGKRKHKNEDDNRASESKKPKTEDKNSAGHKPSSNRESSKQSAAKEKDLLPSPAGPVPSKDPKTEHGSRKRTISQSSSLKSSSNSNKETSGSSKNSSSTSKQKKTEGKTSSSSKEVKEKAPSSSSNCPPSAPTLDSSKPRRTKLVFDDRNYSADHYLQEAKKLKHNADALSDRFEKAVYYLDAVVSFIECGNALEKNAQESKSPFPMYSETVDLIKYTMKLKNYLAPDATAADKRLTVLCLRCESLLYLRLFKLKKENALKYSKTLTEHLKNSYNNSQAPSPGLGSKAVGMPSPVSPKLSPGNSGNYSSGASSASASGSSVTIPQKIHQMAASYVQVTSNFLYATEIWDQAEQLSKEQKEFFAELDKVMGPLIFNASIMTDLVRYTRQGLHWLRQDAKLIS

[2] = target: T2, AFF4 Phe35 alanine mutant with C-terminal 3× FLAG tag (human) (UniProt Q9UHB7); assay: as above
T2 sequence: T1 sequence with F35A, A63K, A64D

[3] = target: T3, AFF4 Tyr59/Asp60 di-alanine mutant with C-terminal 3× FLAG tag (human) (UniProt Q9UHB7); assay: as above
T3 sequence: T1 sequence with Y59A, D60A, A63K, A64D

[4] = target: T4, AFF4 wild type with C-terminal 3× FLAG tag (human) (UniProt Q9UHB7); assay: as above
T4 sequence: T1 sequence with A63K, A64D

[5] = target: P-TEFb (CDK9 1–330 / cyclin T1 1–264) (human) (UniProt P50750); assay: co-purification (His-Trap, then ion exchange chromatography); insect cells coinfected with His-CDK9, CycT1 and Tat viruses; His-Trap, TEV digest, Source S column in 20 mM Na-HEPES pH 7.3, 10% glycerol, 1 mM DTT with NaCl gradient

Measured: binding

AF9, endogenous in HeLa cells (from UniProt P42568 1-568)
not listed: [5]
binds: all other assays above

HIV-1 Tat (1–86) (from UniProt P04608 1-86)
binds: [5]

B1: ENL, endogenous in HeLa cells (protein, UniProt Q03111 1-559)
chain: MDNQCTVQVRLELGHRAQLRKKPTTEGFTHDWMVFVRGPEQCDIQHFVEKVVFWLHDSFPKPRRVCKEPPYKVEESGYAGFIMPIEVHFKNKEEPRKVCFTYDLFLNLEGNPPVNHLRCEKLTFNNPTTEFRYKLLRAGGVMVMPEGADTVSRPSPDYPMLPTIPLSAFSDPKKTKPSHGSKDANKESSKTSKPHKVTKEHRERPRKDSESKSSSKELEREQAKSSKDTSRKLGEGRLPKEEKAPPPKAAFKEPKMALKETKLESTSPKGGPPPPPPPPPRASSKRPATADSPKPSAKKQKKSSSKGSRSAPGTSPRTSSSSSFSDKKPAKDKSSTRGEKVKAESEPREAKKALEVEESNSEDEASFKSESAQSSPSNSSSSSDSSSDSDFEPSQNHSQGPLRSMVEDLQSEESDEDDSSSGEEAAGKTNPGRDSRLSFSDSESDNSADSSLPSREPPPPQKPPPPNSKVSGRRSPESCSKPEKILKKGTYDKAYTDELVELHRRLMALRERNVLQQIVNLIEETGHFNVTNTTFDFDLFSLDETTVRKLQSCLEAVAT
not listed: [5]
binds: all other assays above
